Paper doi:10.1101/2024.02.06.579108
Substitutions are numbered along the chain they refer to. Names and notes keep the numbering of the source. Results are given in words; binding and its absence hold for the method and conditions named. In cells and extracts the contact can be indirect. Some binding calls cover weakened binding; strength is not graded here. Each block holds one binder with its values, some of them ahead of it.

Biological target: T1, wild type TMEM43 (TMEM43 p.358S) (human) (UniProt Q9BTV4)
T1 sequence: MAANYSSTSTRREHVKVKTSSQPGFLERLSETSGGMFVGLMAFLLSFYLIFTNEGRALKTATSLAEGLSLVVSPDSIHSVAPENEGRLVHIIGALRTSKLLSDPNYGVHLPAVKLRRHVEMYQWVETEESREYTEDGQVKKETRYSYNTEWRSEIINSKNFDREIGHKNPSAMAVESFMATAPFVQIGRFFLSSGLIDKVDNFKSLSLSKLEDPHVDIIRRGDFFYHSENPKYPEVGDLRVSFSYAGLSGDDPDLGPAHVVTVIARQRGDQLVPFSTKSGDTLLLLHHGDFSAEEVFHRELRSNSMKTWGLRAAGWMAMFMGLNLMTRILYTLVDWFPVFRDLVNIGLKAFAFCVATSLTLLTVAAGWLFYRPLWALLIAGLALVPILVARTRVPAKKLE
Assay: co-IP

binding: binds
B1: wild type TMEM43 (TMEM43 p.358S) (protein, UniProt Q9BTV4 1-400)
chain: T1 sequence

binding: binds
B2: TMEM43 p.S358L (protein, UniProt Q9BTV4 1-400)
chain: T1 sequence with S358L
